According to the supplement of paper PMC8426693:
Some of the results follow.

Experiments:
Experiment in all cases: NMR binding call after quantification (hit when 2 of 3 NMR criteria are met) (binary (1 = binding, 0 = not binding)); higher = binding
Conditions in all cases: RNA concentration 10 µM; fragment concentration 200 µM; 293 K
[1] = tested on: SARS-CoV-2 3'-UTR RNA
[2] = tested on: SARS-CoV-2 3_SL1 RNA
[3] = tested on: SARS-CoV-2 3_SL1+2 RNA
[4] = tested on: SARS-CoV-2 3_SL2 RNA
[5] = tested on: SARS-CoV-2 3_SL3base RNA
[6] = tested on: SARS-CoV-2 3_s2m RNA

Measured: NMR binding call

CCOc1c(F)cccc1C(=O)N(C)C
0: all assays above

c1cc(CN2CCNCC2)no1
0: all assays above

Cc1ccc(CC(=O)Nc2nccs2)cc1
0: all assays above

CCC(=O)NC1CCNC1 (stereo not given)
0: all assays above

CNC(=O)c1cnc(C)s1
0: all assays above

Cc1noc(C)c1CC(C)C(=O)N(C)C (stereo not given)
0: all assays above

NC(=O)c1ccccc1NC(=O)c1ccncc1
0: all assays above

CS(=O)(=O)c1nccn1Cc1cscn1
0: all assays above

COC(=O)COc1ccc(C#N)cc1
0: all assays above

Cc1noc(NC(=O)CC2CCCC2)n1
0: all assays above

COC(=O)C1CCN(CC(N)=O)CC1
0: all assays above

C1CC(c2nc(C3CC3)no2)CN1 (stereo not given)
0: all assays above

Cc1noc(C)c1C(=O)NCCC1=CCCCC1
0: all assays above

CCOC(=O)C1CCN(c2cnccn2)CC1
0: all assays above

CCNC(=O)c1c[nH]nn1
0: all assays above

CC(C)(C)C1CCN(C(=O)c2ccccc2)CC1
0: all assays above

Cc1cc(C(=O)NCC2CCCO2)ns1 (stereo not given)
0: all assays above

O=C(O)Cc1ccc(-c2ccccc2)cc1
0: all assays above

CC(N)c1ccc(N2CCOCC2)cc1 (stereo not given)
0: all assays above

Cc1ccccc1CC(N)=O
0: all assays above

Cc1ccc(OCC(=O)N2CCOCC2)c(C)c1
0: all assays above

CC(=O)Nc1ccc(CN2CCOCC2)cc1
0: all assays above

COC(=O)Nc1cc(C)n(-c2ccccc2)n1
0: all assays above

COc1cccc(CN2CCC(C(N)=O)CC2)c1
0: all assays above

O=C1CN(C(=O)COc2ccccc2)CCN1
0: all assays above

Not a retest: three of the compounds above.
Cc1ccc(OCC(=O)N2CCOCC2)c(C)c1
0: all assays above

CC(=O)Nc1ccc(CN2CCOCC2)cc1
0: all assays above

COC(=O)Nc1cc(C)n(-c2ccccc2)n1
0: all assays above

Carrying on:

CNC1(CO)CCOCC1
0: all assays above

COC(=O)c1cccc(NS(C)(=O)=O)c1
0: all assays above

Cc1n[nH]c(C)c1S(=O)(=O)N(C)C
0: all assays above

CNC(C)c1sc(C)nc1C (stereo not given)
0: all assays above

CN(C)C(=O)OCCn1ccnc1
0: all assays above

CC(N)C(=O)Nc1cc(C(F)(F)F)n[nH]1.Cl (stereo not given)
0: all assays above

N#CCC(=O)N1CCC(C(N)=O)CC1
0: all assays above

COCC(=O)NCc1nc2ccccc2[nH]1
0: all assays above

CC(Oc1ccc(C#N)cc1)C(N)=O (stereo not given)
0: all assays above

CCOC(=O)c1sc(N(C)C(C)=O)nc1C
0: all assays above
